Measurements published in US20200263231A1, “Fluorogenic dyes for high sensitivity DNA detection” (LIFE TECHNOLOGIES CORPORATION, priority 2016, published 2020).
Some of these results come from one statement about several compounds together. For at least one compound, name, drawing or mass did not settle the structure.

Tested on: calf thymus DNA
Assay: Fluorescence emission and enhancement of compounds bound to calf thymus DNA
Assay type: binding
Method: Compounds 1-65 were prepared and their fluorescence absorption and emission characteristics were measured. Intrinsic fluorescence of the compounds only (without DNA) was negligible. Emission spectra for the compounds bound to dsDNA were obtained by incubating 0.8 μM compound with 500 ng/ml calf thymus DNA in TE buffer (10 mM Tris-HCl, pH 7.5, 1 mM EDTA) in a final volume of 3 ml. Measurements were made using PerkinElmer LS 55 (F-11) Fluorescence spectrometer. Samples were excited at 488 nm and fluorescence emission was measured with emission slit widths of 2.5 nm. Absorption maxima were determined according to standard techniques.
Fluorescence enhancement measurements of the compounds were obtained by incubating 0.8 μM compound with 500 ng/ml calf thymus DNA with compounds at a final concentration of 0.8 μM in TE buffer. Compound 1 was used as an internal standard to control for variability (e.g., in excitation light intensity). The area-under-curve of fluorescence emission spectra from 500 nm to 715 nm was calculated, and compared to that of compound 1, which was defined as having 1000-fold fluorescence enhancement relative to fluorescence of the compound alone.

Row | SMILES | Intrinsic fluorescence of the compounds only (without DNA)
1 | CCCN(CCCN(C)C)C1=C/C(=C/c2sc3ccccc3[n+]2C)c2ccccc2N1c1ccccc1 [Compound 1, reference compound] | negligible
2 | CCCCN(CCC[N+](C)(C)C)C1=CC(=Cc2sc3ccccc3[n+]2C)c2ccc(OC)cc2N1c1ccccc1.[I-].[I-] [Compound 35] | negligible
3 | CCN(CCCN(C)C)C1=CC(=Cc2sc3ccccc3[n+]2C)c2ccc(OC)cc2N1c1ccccc1.[I-] [Compound 48] | negligible
4 | CCN(CCC[N+](C)(C)C)C1=CC(=Cc2sc3ccccc3[n+]2C)c2ccc(OC)cc2N1c1ccccc1.[I-].[I-] [Compound 49] | negligible
